The record followed here is PMC10287742.

Chains of the proteins cited; added tags and fusions are not shown. Lines headed by an entry give the natural chain unless they say otherwise; changes in a name come on top.
UniProt Q6ZNJ1: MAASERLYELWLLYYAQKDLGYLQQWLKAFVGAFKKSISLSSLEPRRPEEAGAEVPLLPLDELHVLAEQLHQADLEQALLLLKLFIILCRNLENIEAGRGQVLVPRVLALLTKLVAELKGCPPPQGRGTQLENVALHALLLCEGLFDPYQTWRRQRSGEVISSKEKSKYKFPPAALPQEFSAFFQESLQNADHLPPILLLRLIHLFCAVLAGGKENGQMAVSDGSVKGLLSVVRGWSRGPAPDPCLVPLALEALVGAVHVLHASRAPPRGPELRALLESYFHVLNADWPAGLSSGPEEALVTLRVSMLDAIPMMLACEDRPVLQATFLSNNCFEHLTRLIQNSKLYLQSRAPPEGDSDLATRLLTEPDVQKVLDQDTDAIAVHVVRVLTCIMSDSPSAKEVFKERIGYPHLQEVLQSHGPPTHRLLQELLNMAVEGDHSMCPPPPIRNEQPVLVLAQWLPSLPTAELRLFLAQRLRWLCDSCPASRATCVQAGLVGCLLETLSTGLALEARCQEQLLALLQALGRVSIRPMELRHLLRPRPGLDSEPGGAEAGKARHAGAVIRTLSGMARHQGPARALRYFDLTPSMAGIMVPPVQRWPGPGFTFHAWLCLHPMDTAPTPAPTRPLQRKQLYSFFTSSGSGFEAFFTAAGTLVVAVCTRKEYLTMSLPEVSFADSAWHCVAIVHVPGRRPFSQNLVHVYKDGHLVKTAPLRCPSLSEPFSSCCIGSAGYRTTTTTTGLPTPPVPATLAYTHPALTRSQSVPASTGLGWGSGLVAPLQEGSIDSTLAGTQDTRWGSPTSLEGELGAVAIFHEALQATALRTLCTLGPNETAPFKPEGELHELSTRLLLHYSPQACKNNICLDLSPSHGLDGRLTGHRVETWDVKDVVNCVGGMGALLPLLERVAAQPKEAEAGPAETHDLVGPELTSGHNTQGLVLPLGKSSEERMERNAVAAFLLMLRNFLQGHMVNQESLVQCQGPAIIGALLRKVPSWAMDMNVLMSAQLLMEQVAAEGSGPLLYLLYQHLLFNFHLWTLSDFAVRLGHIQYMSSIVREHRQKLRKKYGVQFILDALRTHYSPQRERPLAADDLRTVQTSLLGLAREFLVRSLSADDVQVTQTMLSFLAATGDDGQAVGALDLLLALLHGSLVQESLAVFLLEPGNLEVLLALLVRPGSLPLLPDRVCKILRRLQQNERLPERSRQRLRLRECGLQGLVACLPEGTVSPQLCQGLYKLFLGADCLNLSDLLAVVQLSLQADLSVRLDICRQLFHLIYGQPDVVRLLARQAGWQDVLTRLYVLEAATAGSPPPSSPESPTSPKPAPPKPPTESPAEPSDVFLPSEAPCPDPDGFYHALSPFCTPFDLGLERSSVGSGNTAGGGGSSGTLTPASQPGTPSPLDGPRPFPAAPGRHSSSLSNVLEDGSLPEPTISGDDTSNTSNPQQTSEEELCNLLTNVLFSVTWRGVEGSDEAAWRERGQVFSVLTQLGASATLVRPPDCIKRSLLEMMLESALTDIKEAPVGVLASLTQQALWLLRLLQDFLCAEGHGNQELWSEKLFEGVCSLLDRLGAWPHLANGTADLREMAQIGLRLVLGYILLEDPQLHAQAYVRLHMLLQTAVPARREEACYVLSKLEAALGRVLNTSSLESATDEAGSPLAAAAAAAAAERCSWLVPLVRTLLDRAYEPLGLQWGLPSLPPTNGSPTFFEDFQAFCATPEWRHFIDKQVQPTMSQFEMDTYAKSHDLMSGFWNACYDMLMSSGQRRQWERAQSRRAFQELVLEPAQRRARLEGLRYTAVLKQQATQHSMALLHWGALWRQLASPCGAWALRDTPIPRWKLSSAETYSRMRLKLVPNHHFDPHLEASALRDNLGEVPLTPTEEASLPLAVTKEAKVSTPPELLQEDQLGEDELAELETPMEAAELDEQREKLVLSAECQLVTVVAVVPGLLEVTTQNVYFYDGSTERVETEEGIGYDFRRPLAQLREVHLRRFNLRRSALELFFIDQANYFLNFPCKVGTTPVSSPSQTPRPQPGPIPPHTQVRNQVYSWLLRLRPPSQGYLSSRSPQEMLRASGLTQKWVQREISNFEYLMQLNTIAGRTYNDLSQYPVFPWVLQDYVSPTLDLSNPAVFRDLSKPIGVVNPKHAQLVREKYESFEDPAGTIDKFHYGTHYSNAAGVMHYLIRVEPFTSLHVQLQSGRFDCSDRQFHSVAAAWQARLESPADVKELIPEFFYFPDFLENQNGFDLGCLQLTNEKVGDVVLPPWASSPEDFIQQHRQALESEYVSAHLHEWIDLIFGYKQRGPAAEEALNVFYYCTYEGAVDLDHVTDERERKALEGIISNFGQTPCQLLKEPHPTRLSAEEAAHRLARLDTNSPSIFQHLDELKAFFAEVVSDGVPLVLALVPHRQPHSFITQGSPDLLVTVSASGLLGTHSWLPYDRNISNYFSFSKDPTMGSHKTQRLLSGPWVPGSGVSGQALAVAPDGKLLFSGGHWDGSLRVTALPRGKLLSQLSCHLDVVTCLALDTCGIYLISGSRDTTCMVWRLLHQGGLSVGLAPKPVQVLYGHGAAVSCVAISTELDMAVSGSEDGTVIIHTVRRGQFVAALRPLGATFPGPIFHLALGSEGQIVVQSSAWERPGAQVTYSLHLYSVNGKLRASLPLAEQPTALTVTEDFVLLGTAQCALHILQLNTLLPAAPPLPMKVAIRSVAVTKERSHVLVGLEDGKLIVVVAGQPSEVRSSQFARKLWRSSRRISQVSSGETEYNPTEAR
UniProt Q8NF50: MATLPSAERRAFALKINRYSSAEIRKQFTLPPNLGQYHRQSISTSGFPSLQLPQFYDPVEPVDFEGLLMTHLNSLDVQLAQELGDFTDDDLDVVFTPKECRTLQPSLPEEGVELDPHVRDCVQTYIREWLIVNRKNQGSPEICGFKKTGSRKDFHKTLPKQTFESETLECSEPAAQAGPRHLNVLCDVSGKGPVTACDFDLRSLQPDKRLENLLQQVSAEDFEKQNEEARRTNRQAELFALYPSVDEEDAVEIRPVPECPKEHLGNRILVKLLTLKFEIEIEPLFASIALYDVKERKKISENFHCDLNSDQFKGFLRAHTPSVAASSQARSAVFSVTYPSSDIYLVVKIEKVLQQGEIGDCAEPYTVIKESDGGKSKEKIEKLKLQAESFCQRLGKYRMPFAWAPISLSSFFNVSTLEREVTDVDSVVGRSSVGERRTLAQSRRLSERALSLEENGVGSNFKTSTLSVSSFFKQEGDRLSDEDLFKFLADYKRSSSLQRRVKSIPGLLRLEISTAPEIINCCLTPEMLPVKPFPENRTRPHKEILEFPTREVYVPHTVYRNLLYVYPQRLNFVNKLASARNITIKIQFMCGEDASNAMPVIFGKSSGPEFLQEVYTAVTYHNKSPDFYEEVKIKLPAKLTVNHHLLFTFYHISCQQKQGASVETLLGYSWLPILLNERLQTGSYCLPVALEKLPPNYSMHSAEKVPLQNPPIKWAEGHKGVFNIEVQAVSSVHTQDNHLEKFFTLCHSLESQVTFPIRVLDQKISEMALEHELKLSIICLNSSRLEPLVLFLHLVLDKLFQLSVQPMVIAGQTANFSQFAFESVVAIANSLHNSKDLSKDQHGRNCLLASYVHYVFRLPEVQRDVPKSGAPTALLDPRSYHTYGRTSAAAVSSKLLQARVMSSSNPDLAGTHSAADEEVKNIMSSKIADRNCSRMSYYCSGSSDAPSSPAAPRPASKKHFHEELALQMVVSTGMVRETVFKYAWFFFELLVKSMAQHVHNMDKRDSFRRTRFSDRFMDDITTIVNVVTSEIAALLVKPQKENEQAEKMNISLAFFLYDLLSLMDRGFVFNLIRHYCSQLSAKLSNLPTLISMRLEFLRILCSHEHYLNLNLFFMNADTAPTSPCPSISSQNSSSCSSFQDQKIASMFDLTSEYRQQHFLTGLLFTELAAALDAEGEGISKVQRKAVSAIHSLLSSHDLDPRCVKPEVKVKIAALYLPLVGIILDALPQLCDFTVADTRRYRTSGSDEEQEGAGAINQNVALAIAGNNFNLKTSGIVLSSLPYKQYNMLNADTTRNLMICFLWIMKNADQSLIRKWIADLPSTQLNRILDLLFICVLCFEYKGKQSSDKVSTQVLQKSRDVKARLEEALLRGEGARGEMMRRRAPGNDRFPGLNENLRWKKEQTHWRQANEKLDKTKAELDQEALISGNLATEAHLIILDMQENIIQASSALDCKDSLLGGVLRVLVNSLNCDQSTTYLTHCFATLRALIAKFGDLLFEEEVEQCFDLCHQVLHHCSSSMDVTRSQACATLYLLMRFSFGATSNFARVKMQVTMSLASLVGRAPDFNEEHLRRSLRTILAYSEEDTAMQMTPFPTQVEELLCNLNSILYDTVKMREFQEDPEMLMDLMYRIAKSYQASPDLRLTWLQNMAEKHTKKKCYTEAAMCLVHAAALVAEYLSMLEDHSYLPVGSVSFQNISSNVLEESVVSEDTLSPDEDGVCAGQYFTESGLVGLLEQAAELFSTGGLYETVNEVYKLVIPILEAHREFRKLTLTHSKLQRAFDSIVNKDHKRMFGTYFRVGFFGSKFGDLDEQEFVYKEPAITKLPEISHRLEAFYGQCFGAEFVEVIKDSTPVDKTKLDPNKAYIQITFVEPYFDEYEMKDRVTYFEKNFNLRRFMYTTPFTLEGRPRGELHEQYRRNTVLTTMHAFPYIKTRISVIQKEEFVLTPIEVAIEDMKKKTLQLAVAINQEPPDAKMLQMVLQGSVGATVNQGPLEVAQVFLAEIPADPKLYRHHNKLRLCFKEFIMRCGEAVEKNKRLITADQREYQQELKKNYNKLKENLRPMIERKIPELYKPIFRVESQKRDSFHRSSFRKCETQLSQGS
UniProt P51124: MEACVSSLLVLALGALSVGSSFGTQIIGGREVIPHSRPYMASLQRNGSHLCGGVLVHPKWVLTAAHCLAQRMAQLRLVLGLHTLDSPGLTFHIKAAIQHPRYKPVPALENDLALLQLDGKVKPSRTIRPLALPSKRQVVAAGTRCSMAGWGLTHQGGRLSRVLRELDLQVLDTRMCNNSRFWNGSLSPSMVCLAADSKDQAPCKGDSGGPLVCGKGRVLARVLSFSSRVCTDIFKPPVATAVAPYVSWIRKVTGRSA

B1: CCDC88B (protein, UniProt A6NC98 1-1476)
chain: MEGGKGPRLRDFLSGSLATWALGLAGLVGEAEDSEGEEEEEEEEPPLWLEKRFLRLSDGALLLRVLGIIAPSSRGGPRMLRGLDGPAAWRVWNLNHLWGRLRDFYQEELQLLILSPPPDLQTLGFDPLSEEAVEQLEGVLRLLLGASVQCEHRELFIRHIQGLSLEVQSELAAAIQEVTQPGAGVVLALSGPDPGELAPAELEMLSRSLMGTLSKLARERDLGAQRLAELLLEREPLCLRPEAPSRAPAEGPSHHLALQLANAKAQLRRLRQELEEKAELLLDSQAEVQGLEAEIRRLRQEAQALSGQAKRAELYREEAEALRERAGRLPRLQEELRRCRERLQAAEAYKSQLEEERVLSGVLEASKALLEEQLEAARERCARLHETQRENLLLRTRLGEAHAELDSLRHQVDQLAEENVELELELQRSLEPPPGSPGEAPLAGAAPSLQDEVREAEAGRLRTLERENRELRGLLQVLQGQPGGQHPLLEAPREDPVLPVLEEAPQTPVAFDHSPQGLVQKARDGGPQALDLAPPALDSVLEASAECPQAPDSDPQEAESPLQAAAMDPQASDWSPQESGSPVETQESPEKAGRRSSLQSPASVAPPQGPGTKIQAPQLLGGETEGREAPQGELVPEAWGLRQEGPEHKPGPSEPSSVQLEEQEGPNQGLDLATGQAEAREHDQRLEGTVRDPAWQKPQQKSEGALEVQVWEGPIPGESLASGVAEQEALREEVAQLRRKAEALGDELEAQARKLEAQNTEAARLSKELAQARRAEAEAHREAEAQAWEQARLREAVEAAGQELESASQEREALVEALAAAGRERRQWEREGSRLRAQSEAAEERMQVLESEGRQHLEEAERERREKEALQAELEKAVVRGKELGDRLEHLQRELEQAALERQEFLREKESQHQRYQGLEQRLEAELQAAATSKEEALMELKTRALQLEEELFQLRQGPAGLGPKKRAEPQLVETQNVRLIEVERSNAMLVAEKAALQGQLQHLEGQLGSLQGRAQELLLQSQRAQEHSSRLQAEKSVLEIQGQELHRKLEVLEEEVRAARQSQEETRGQQQALLRDHKALAQLQRRQEAELEGLLVRHRDLKANMRALELAHRELQGRHEQLQAQRASVEAQEVALLAERERLMQDGHRQRGLEEELRRLQSEHDRAQMLLAELSRERGELQGERGELRGRLARLELERAQLEMQSQQLRESNQQLDLSACRLTTQCELLTQLRSAQEEENRQLLAEVQALSRENRELLERSLESRDHLHREQREYLDQLNALRREKQKLVEKIMDQYRVLEPVPLPRTKKGSWLADKVKRLMRPRREGGPPGGLRLGADGAGSTESLGGPPETELPEGREADGTGSPSPAPMRRAQSSLCLRDETLAGGQRRKLSSRFPVGRSSESFSPGDTPRQRFRQRHPGPLGAPVSHSKGPGVGWENSAETLQEHETDANREGPEVQEPEKRPLTPSLSQ
B2: AP1G2 (γ2 subunit of AP-1 complex) (protein, UniProt O75843 1-785)
chain: MVVPSLKLQDLIEEIRGAKTQAQEREVIQKECAHIRASFRDGDPVHRHRQLAKLLYVHMLGYPAHFGQMECLKLIASSRFTDKRVGYLGAMLLLDERHDAHLLITNSIKNDLSQGIQPVQGLALCTLSTMGSAEMCRDLAPEVEKLLLQPSPYVRKKAILTAVHMIRKVPELSSVFLPPCAQLLHERHHGILLGTITLITELCERSPAALRHFRKVVPQLVHILRTLVTMGYSTEHSISGVSDPFLQVQILRLLRILGRNHEESSETMNDLLAQVATNTDTSRNAGNAVLFETVLTIMDIRSAAGLRVLAVNILGRFLLNSDRNIRYVALTSLLRLVQSDHSAVQRHRPTVVECLRETDASLSRRALELSLALVNSSNVRAMMQELQAFLESCPPDLRADCASGILLAAERFAPTKRWHIDTILHVLTTAGTHVRDDAVANLTQLIGGAQELHAYSVRRLYNALAEDISQQPLVQVAAWCIGEYGDLLLAGNCEEIEPLQVDEEEVLALLEKVLQSHMSLPATRGYALTALMKLSTRLCGDNNRIRQVVSIYGSCLDVELQQRAVEYDTLFRKYDHMRAAILEKMPLVERDGPQADEEAKESKEAAQLSEAAPVPTEPQASQLLDLLDLLDGASGDVQHPPHLDPSPGGALVHLLDLPCVPPPPAPIPDLKVFEREGVQLNLSFIRPPENPALLLITITATNFSEGDVTHFICQAAVPKSLQLQLQAPSGNTVPARGGLPITQLFRILNPNKAPLRLKLRLTYDHFHQSVQEIFEVNNLPVESWQ

No constants are given. Whether binding was seen depends on the method and setting. In cells and extracts the contact can be indirect. Here binding means that the protein was enriched with, or labelled near, the bait; the list need not be complete.

In this test the target is NBEAL2 (human (endogenous in primary T cells)) (UniProt Q6ZNJ1). The test is described as follows: affinity purification with mass spectrometry; anti-NBEAL2 antibody coupled to agarose beads; lysates of activated T cells (Octyl buffer) after reversible cross-linking with DSP; 4 °C overnight; two healthy controls compared with two GPS patients (P6, P7); LC-MS/MS of the IP fractions.
“LPS-responsive beige-like anchor protein (LRBA) (from UniProt P50851 1-2863)”: the binding result was “binds”. The same measure for DOCK8 (from UniProt Q8NF50 1-2099): “binds”; for DYNC1H1 (from UniProt Q14204 1-4646): “binds”. To GZMM (from UniProt P51124) belongs “binds”. To B1 belongs “binds”; to B2, “binds”.
